Results published in patent US7160545B2, “HLA-A24 binding peptides of enhancer of zeste homolog 2” (Green Peptide Co., Ltd., priority 2005, dated 2007).
At least one peptide structure holds a part that was inferred or is arguable (an end, a ring closure or a residue). No end group written: not given here.

Tests used:
[1] = system: IgG in the plasma of prostate cancer patients; assay: ELISA for peptide-specific IgG in plasma of prostate cancer patients; format: binding, human; conditions: for Patients in whose plasma IgG reactive to the peptide was detected / Humoral response, Total (IgG-positive patients/patients tested): 10 prostate cancer patients; for Humoral response, Total (IgG-positive patients/patients tested): positive when OD more than 0.04; for IgG reactive to peptide, OD: 1:100-diluted plasma, cut-off OD 0.04, — = not positive; for Share of prostate cancer patients with IgG reactive to the peptide detected in plasma: summary statement
Method: Peptide-specific IgG levels in the plasma were measured by ELISA using a previously reported method (20). In brief, peptide (20 μg/well)-immobilized plates were blocked with Block Ace (Yukijirushi, Tokyo, Japan) and washed with 0.05% Tween20-PBS, after which 100 μl/well of plasma sample diluted with 0.05% Tween20-Block Ace was added to the plates. After a 2-hr incubation at 37° C., the plates were washed and further incubated for 2 hr with a 1:1000-diluted rabbit anti-human IgG (γ-chain-specific) (DAKO, Glostrup, Denmark). The plates were washed, and then 100 μl of 1:100-diluted goat anti-rabbit IgG-conjugated horseradish peroxidase (EnVision; DAKO) was added to each well, and the plates were incubated at room temperature for 40 min. After the plates were washed once, 100 μl/well of tetramethyl benzidine substrate solution (KPL, Guildford, UK) was added, and the reaction was stopped by the addition of 1 M phosphoric acid. The values are shown as optical density (OD) units/ml. To confirm the specificity of IgG to the indicated EZH2 peptide, sample plasma was cultured with plates coated with either the corresponding EZH2 peptide or an irrelevant EZH2 peptide. Thereafter, the levels of EZH2 peptide-specific IgG in the resulting supernatant were determined by ELISA.
As shown above, we investigated whether IgG reactive to each of the 11 EZH2-derived peptides could be detected in the plasma of 10 prostate cancer patients. These patients were not limited to the HLA-A24^+ subjects, because peptide-specific IgG was not restricted to MHC class I molecules, as reported previously (22). The mean+2 SD value (OD: 0.04), which was determined as the level of IgG reactive to the HIV peptide in plasma from HIV-negative healthy donors, was used as a cut-off value at a 1:100 diluted plasma in the ELISA.

[2] = system: PBMCs of HLA-A24^+ prostate cancer patients; assay: IFN-γ production of peptide-stimulated PBMCs against peptide-pulsed C1R-A24 cells (peptide-specific CTL assay); format: cell-based, human; conditions: for Cancer patients in whom the peptide induced peptide-specific CTLs: HLA-A24^+ prostate cancer patients; for IFN-γ production: day 15, C1R-A24 cells pulsed with corresponding peptide, HIV peptide background subtracted, mean of 2 wells; for Reactivity of peptide-stimulated PBMCs, Total (patients with significant IFN-γ production/patients tested): significant: p < 0.05 and >100 pg/ml of IFN-γ production
Method: The assay for the detection of peptide-specific CTLs in PBMCs was performed according to a previously reported method (21). In brief, PBMCs (1×10^5 cells/well) were incubated with 10 μg/ml of each peptide in a U-bottom-type 96-well microculture plate (Nunc, Roskilde, Denmark) at a volume of 200 μl of culture medium. The culture medium consisted of 45% RPMI-1640, 45% AIM-V medium (Gibco BRL, Grand Island, N.Y.), 10% FCS, 100 U/ml of interleukin (IL)-2, and 0.1 mM MEM nonessential amino acid solution (Gibco BRL, Grand Island, N.Y.). Half of the culture medium was removed and replaced with new medium containing a corresponding peptide (20 μg/ml) every 3 days. On the 15th day of culture, the cultured cells were separated into 4 wells, and two of which were used for EZH2 peptide-pulsed C1R-A24 cells, and the other two of which were used for the HIV peptide-pulsed C1R-A24 cells. C1R-A24 is an HLA-A*2402-expressing subline of C1R lymphoma (Oiso M, Eura M, Katsura F, Takiguchi M, Sobao Y, Masuyama K, Nakashima M, Itoh K, Ishikawa T. A newly identified MAGE-3-derived epitope recognized by HLA-A24-restricted cytotoxic T lymphocytes. Int. J. Cancer 81: 387–394, 1999, this reference is incorporated herein by reference). After an 18-hr incubation period, the supernatants were collected and the level of IFN-γ was determined by ELISA. The EZH2-170 peptide was included in this experiment as an EZH2 peptide that was less frequently recognized by the humoral immune system.

## KYDCFLHPF [EZH2-291]
[1]
  Patients in whose plasma IgG reactive to the peptide was detected: 4 of 10 patients
  Humoral response, Total (IgG-positive patients/patients tested): 4/10
  Share of prostate cancer patients with IgG reactive to the peptide detected in plasma: almost half
[1]; prostate cancer patient #1
  IgG reactive to peptide, OD: 0.040 OD
[1]; prostate cancer patient #2
  IgG reactive to peptide, OD: 0.041 OD
[1]; prostate cancer patient #3
  IgG reactive to peptide, OD: 0.074 OD
[1]; prostate cancer patient #8
  IgG reactive to peptide, OD: 0.067 OD
[2]
  Cancer patients in whom the peptide induced peptide-specific CTLs: 6 of 10
  Reactivity of peptide-stimulated PBMCs, Total (patients with significant IFN-γ production/patients tested): 6/10
[2]; patient #11
  IFN-γ production: 111 pg/mL
[2]; patient #12
  IFN-γ production: 67 pg/mL
[2]; patient #13
  IFN-γ production: 1597 pg/mL
[2]; patient #14
  IFN-γ production: 276 pg/mL
[2]; patient #15
  IFN-γ production: 319 pg/mL
[2]; patient #16
  IFN-γ production: 463 pg/mL
[2]; patient #17
  IFN-γ production: 85 pg/mL
[2]; patient #18
  IFN-γ production: 132 pg/mL
[2]; patient #19
  IFN-γ production: 0 pg/mL
[2]; patient #20
  IFN-γ production: 12 pg/mL

## KYVGIEREM [EZH2-735]
[1]
  Patients in whose plasma IgG reactive to the peptide was detected: 5 of 10 patients
  Humoral response, Total (IgG-positive patients/patients tested): 5/10
  Share of prostate cancer patients with IgG reactive to the peptide detected in plasma: almost half
[1]; prostate cancer patient #2
  IgG reactive to peptide, OD: 0.050 OD
[1]; prostate cancer patient #4
  IgG reactive to peptide, OD: 0.120 OD
[1]; prostate cancer patient #6
  IgG reactive to peptide, OD: 0.045 OD
[1]; prostate cancer patient #7
  IgG reactive to peptide, OD: 0.060 OD
[1]; prostate cancer patient #8
  IgG reactive to peptide, OD: 0.144 OD
[2]
  Cancer patients in whom the peptide induced peptide-specific CTLs: 4 of 9
  Reactivity of peptide-stimulated PBMCs, Total (patients with significant IFN-γ production/patients tested): 4/9
[2]; patient #11
  IFN-γ production: 239 pg/mL
[2]; patient #12
  IFN-γ production: 54 pg/mL
[2]; patient #13
  IFN-γ production: 236 pg/mL
[2]; patient #14
  IFN-γ production: 26 pg/mL
[2]; patient #15
  IFN-γ production: 168 pg/mL
[2]; patient #16
  IFN-γ production: 460 pg/mL
[2]; patient #17
  IFN-γ production: 22 pg/mL
[2]; patient #18
  IFN-γ production: 0 pg/mL
[2]; patient #19
  IFN-γ production: 10 pg/mL
